This data set has as its system c-Met (endogenous, T98G glioma cells) (Homo sapiens). Put plainly: activity in cells. The note with it: 2'-F on all C and U; 1 ug/mL inhibits HGF (50 ng/mL)-induced T98G cell movement; protein on the cell surface; variant of g38.

Results on one sequence are retold here after patent US20130123350.

Construct, isoform or probe ends are uncertain for at least one entry.

In the case of “GGGACGCUCACGUACGCUAACCAGGAGCAUUAGACCGGGGAAAGAAGGAGUACCGUCUGGUCAGUGCCUGGACGUGCAGU [g38 2'-F]”, the “functional effect of the aptamer” value was “active”.
